The values that follow come from PubChem BioAssay AID330 (DTP/NCI, 2004).

This assay concerns P388 leukemia ip, CD2F1 mice, survival T/C. Kind of assay: NCI In Vivo Anticancer Drug Screen. Data for tumor model P388 Leukemia (intraperitoneal) in CD2F1 (CDF1) mice. Conditions: T/C endpoint: median survival time, schedule: Q01DX009 (ip), higher T/C = longer survival.
The mark [1] stands for this setting: dose: 0.16 mg/kg/injection, vehicle: saline + alcohol.
Setting [2] is: dose: 0.31 mg/kg/injection, vehicle: saline + alcohol.
Where [3] appears, read: dose: 0.62 mg/kg/injection, vehicle: saline + alcohol.
Where [4] appears, read: dose: 0.75 mg/kg/injection, vehicle: saline + alcohol.
The mark [5] stands for this setting: dose: 1.5 mg/kg/injection, vehicle: saline + alcohol.
Setting [6] is: dose: 3.0 mg/kg/injection, vehicle: saline + alcohol.
Where [7] appears, read: dose: 12.0 mg/kg/injection, vehicle: saline + alcohol.
The mark [8] stands for this setting: dose: 1.25 mg/kg/injection, vehicle: saline + alcohol.

Molecules are shown by their SMILES. The list is a part of this screen's results and no random one: its compounds were picked by chemical class. Not every dose and run of a compound is shown. T/C is the treated group as % of the vehicle group. Where survival is the endpoint, this PubChem deposit counts one and a half times the control or more as active, and values a quarter to a half above the control carry no call in these data; other NCI protocols may use other cut-offs. Schedules are NCI's codes, read here as Q, the interval in days (D) or hours (H), X, the number of doses. Some T/C values are marked as having no survivor count here; that says nothing about deaths at the dose. Additions like (4×) count equal records among those shown. Some entries hold several experiments; the results are listed from low to high.

As for `CC1=C[C@H]2O[C@H]3[C@H](O)[C@@H](OC(=O)CCl)[C@](C)([C@@]2(COC(=O)CCl)CC1)[C@@]31CO1`, the T/C by setting is: (dose: 0.5 mg/kg/injection, vehicle: saline + alcohol) 142 [survivor count not shown] and 148 % of control [survivor count not shown]; (dose: 1.0 mg/kg/injection, vehicle: saline + alcohol) 151 [survivor count not shown] and 160 % of control [survivor count not shown]; (dose: 2.0 mg/kg/injection, vehicle: saline + alcohol) 184 % of control [survivor count not shown] (2×); (dose: 4.0 mg/kg/injection, vehicle: saline + alcohol) 210 % of control [survivor count not shown] (2×).
With `CC(O)C1/C=C/C=C/C(=O)OC2CC3OC4C5OC5(C)C(O)CC4(COC(=O)C(O)C(C)CCO1)C2(C)C31CO1` (stereo not given), the T/C under setting [1] was 150 % of control [survivor count not shown]; the T/C under setting [2] was 160 % of control [survivor count not shown]; the T/C under setting [3] is 166 % of control [survivor count not shown]; the T/C (dose: 1.25 mg/kg/injection, vehicle: saline + alcohol, evaluated on day 35) was 229 % of control [survivor count not shown]; the T/C (dose: 1.25 mg/kg/injection, vehicle: saline + alcohol, evaluated on day 45) is 200 % of control [survivor count not shown]; the T/C (dose: 2.5 mg/kg/injection, vehicle: saline + alcohol, evaluated on day 35) is 227 % of control [survivor count not shown]. Besides, the T/C is 206 % of control [survivor count not shown] (dose: 2.5 mg/kg/injection, vehicle: saline + alcohol, evaluated on day 45); 321 % of control [survivor count not shown] (dose: 5.0 mg/kg/injection, vehicle: saline + alcohol, evaluated on day 35); 240 % of control [survivor count not shown] (dose: 5.0 mg/kg/injection, vehicle: saline + alcohol, evaluated on day 45); 321 % of control [survivor count not shown] (dose: 10.0 mg/kg/injection, vehicle: saline + alcohol, evaluated on day 35); 268 % of control [survivor count not shown] (dose: 10.0 mg/kg/injection, vehicle: saline + alcohol, evaluated on day 45).
`CC1=C[C@H]2O[C@@H]3[C@H](OC(=O)CCl)[C@@H](O)[C@](C)(C2(CO)CC1)[C@@]31CO1` (stereo not given in full): the T/C reads like this: under setting [4], 120 % of control [survivor count not shown]; under setting [5], 137 % of control [survivor count not shown]; (dose: 1.5 mg/kg/injection, vehicle: saline with Tween-80) 155 % of control [survivor count not shown]; under setting [6], 137 % of control [survivor count not shown]; (dose: 3.0 mg/kg/injection, vehicle: saline with Tween-80) 168 % of control [survivor count not shown]; (dose: 6.0 mg/kg/injection, vehicle: saline + alcohol) 153 % of control [survivor count not shown]. Besides, the T/C by setting is: (dose: 6.0 mg/kg/injection, vehicle: saline with Tween-80) 180 % of control [survivor count not shown]; under setting [7], 170 % of control [survivor count not shown]; (dose: 12.0 mg/kg/injection, vehicle: saline with Tween-80) 104 % of control [survivor count not shown].
For the molecule `CC1=C[C@H]2O[C@@H]3[C@H](OC(=O)CCl)[C@@H](O)[C@](C)(C2(COC(=O)CCl)CC1)[C@@]31CO1` (stereo not given in full), the T/C is, setting by setting: under setting [4], 119 % of control [survivor count not shown]; (dose: 1.0 mg/kg/injection, vehicle: saline with Tween-80) 155 % of control [survivor count not shown]; under setting [5], 128 % of control [survivor count not shown]; (dose: 2.0 mg/kg/injection, vehicle: saline with Tween-80) 150 % of control [survivor count not shown]; under setting [6], 133 % of control [survivor count not shown]; under setting [7], 144 % of control [survivor count not shown].
Consider `CC1=CC2OC3CC4OC(=O)/C=C/C=C/C(=O)OCCC(C)C(O)C(=O)OCC2(CC1O)C4(C)C31CO1` (stereo not given), for which the T/C reads like this: under setting [1], 117 % of control [survivor count not shown]; (dose: 0.25 mg/kg/injection, vehicle: suspension in saline) 115 % of control [survivor count not shown]; under setting [2], 128 % of control [survivor count not shown]; (dose: 0.63 mg/kg/injection, vehicle: saline + alcohol) 131 % of control [survivor count not shown]; (dose: 1.0 mg/kg/injection, vehicle: suspension in saline) 102 % of control [survivor count not shown]; under setting [8], 132 % of control [survivor count not shown].
`CC1=CC2OC3CC4OC(=O)/C=C/C=C/C(C(C)O)OCC(O)C5(C)OC5C(=O)OCC2(CC1O)C4(C)C31CO1` (stereo not given): the T/C is 166 % of control [survivor count not shown] under setting [2]; 163 % of control [survivor count not shown] under setting [3]; 157 % of control [survivor count not shown] under setting [8]; 166 % of control [survivor count not shown] (dose: 2.5 mg/kg/injection, vehicle: saline + alcohol).
